Laboratory results as given in paper PMC10319809, “Chronic UCN2 treatment desensitizes CRHR2 and improves insulin sensitivity” (Nature Communications, 2023).
These are yes or no findings as the source states them, for the method shown. Some binding calls cover weakened binding; strength is not graded here. Sequences can lack the tags named with a protein.

Biological target: T1, HA-tagged CRHR2a (corticotropin-releasing hormone receptor 2, alpha isoform) (human) (UniProt Q13324)
T1 sequence: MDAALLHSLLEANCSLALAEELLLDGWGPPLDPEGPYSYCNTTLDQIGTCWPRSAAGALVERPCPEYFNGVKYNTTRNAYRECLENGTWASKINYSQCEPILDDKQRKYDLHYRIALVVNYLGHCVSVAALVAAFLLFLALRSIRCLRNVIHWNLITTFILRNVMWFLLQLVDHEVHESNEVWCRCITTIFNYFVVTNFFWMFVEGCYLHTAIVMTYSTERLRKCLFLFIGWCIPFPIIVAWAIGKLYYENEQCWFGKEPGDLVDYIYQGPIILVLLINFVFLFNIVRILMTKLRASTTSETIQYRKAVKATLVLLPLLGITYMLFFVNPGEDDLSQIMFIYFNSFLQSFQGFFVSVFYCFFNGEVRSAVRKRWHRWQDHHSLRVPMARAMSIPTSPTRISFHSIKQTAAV
Assay: live-cell fluorescence microscopy of a labelled ligand on cells; FAM-UCN2 added to HEK293 cells transiently transfected with HA-tagged CRHR2a, imaged over 24 h; controls were cells not expressing CRHR2 and CRHR2-expressing cells treated with saline; only the binder purified

binding: binds
Binder: IVLSLDVPIGLLQILLEQARARAAREQATTNARILARVGHC (peptide, UniProt Q96RP3 72-112, FAM fluorescent label, position not stated) [Fluorescently labeled UCN2 (FAM-UCN2)]
